{"source": "patent US20200383905A1", "about": "(priority 2015, published 2020)", "origin": "cited, not measured here", "tested_on": "patients undergoing abdominal surgery", "details": "on-demand dosing; cited from earlier work", "data": [{"smiles": "CN1CC[C@]23c4c5ccc(O)c4O[C@H]2[C@@H](O)C=C[C@H]3[C@H]1C5", "note": "[morphine]", "values": [{"measurement": "Mean cumulative dose, first 90 minutes", "result": 13.9, "unit": "mg"}]}]}
